Here are results for five molecules from article doi:10.1101/306316.

Amino acid sequences for entries named in this document (tags omitted). Residues count along the entry.
UniProt O76031, residues 57-633: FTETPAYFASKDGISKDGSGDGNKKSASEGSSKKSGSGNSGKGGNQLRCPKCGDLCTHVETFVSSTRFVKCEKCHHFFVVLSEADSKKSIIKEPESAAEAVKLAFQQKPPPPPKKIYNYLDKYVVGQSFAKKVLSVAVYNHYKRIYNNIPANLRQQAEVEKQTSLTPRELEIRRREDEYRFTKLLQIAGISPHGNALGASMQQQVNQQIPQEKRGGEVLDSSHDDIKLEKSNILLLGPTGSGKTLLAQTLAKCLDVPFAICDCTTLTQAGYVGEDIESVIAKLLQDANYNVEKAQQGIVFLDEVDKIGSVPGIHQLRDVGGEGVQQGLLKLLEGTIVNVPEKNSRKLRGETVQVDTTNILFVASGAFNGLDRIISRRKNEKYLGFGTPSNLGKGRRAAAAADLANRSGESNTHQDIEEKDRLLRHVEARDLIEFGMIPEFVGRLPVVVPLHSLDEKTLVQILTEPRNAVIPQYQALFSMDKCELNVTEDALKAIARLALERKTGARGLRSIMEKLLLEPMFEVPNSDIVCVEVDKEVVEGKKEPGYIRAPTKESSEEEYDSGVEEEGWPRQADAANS
UniProt Q9Y4W6, residues 67-797: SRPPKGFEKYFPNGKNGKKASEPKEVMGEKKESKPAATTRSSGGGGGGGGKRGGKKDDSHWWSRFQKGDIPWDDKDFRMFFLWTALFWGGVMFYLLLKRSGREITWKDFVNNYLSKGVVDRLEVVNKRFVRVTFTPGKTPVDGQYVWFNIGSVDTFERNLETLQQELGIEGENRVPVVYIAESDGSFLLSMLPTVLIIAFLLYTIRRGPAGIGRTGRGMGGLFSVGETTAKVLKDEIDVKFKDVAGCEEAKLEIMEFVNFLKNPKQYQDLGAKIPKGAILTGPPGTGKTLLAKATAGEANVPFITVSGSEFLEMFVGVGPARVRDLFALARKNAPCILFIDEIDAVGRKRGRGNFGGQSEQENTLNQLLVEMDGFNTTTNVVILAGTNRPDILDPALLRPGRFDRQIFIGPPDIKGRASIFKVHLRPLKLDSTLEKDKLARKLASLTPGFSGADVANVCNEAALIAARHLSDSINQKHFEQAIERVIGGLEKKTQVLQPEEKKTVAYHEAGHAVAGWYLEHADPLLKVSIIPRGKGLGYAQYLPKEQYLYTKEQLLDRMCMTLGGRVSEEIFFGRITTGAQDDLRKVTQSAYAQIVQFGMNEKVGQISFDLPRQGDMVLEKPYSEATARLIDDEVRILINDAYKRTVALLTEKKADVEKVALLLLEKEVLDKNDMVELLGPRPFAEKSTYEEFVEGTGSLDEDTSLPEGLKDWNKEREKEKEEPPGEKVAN

Like-named read-outs stand apart in the source and are kept apart here. Results are given in words; binding and its absence hold for the method and conditions named. In cells and extracts the contact can be indirect. Here binding means that the protein was enriched with, or labelled near, the bait; the list need not be complete.

Common to all, as to test: affinity purification with mass spectrometry
In test [1] the target is T1, LONP1 (human) (UniProt P36776).
T1 sequence: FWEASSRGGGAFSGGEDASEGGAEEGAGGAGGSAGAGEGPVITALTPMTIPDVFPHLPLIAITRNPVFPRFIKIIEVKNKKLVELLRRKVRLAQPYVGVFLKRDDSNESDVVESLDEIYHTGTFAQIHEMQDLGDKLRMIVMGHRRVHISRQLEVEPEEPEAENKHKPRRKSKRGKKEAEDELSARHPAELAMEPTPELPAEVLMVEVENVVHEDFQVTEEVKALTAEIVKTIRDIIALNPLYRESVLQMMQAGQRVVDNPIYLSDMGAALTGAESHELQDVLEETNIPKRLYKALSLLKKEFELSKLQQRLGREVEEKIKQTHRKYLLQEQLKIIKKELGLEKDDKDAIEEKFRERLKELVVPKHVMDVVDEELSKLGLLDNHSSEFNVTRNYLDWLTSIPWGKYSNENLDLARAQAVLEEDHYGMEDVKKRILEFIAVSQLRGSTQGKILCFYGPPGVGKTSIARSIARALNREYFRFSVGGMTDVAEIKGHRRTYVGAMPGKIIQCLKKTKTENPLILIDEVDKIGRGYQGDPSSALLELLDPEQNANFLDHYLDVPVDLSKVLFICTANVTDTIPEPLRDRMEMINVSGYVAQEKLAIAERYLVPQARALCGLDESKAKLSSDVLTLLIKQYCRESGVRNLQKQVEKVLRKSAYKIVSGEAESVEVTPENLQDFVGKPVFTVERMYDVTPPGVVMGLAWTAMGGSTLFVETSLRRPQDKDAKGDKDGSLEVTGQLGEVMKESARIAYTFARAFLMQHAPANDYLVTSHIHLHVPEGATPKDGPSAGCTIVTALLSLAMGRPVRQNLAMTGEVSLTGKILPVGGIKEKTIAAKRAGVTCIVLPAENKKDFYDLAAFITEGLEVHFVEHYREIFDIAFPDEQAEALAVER

The target in test [2] is T1, LONP1 (human). This is another data set of the same source.
Test [3] deals with T2, PMPCB, the beta subunit of the MPP (MPPβ) (human (endogenous in fibroblasts)) (UniProt O75439).
T2 sequence: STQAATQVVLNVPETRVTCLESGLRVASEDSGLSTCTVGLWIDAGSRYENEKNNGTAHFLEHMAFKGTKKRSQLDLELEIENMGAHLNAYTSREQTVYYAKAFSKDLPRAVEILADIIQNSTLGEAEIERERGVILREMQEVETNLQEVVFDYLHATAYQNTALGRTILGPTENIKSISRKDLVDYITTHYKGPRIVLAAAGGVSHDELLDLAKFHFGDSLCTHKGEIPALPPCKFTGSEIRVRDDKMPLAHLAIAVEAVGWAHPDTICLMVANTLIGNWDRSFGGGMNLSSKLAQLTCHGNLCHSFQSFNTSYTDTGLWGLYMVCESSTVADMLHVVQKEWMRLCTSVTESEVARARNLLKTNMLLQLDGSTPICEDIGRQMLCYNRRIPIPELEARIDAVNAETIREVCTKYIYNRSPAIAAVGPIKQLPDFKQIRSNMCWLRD

Turning to CLPX (from UniProt O76031 57-633), the binding entry in the test with LONP1 (human) [1] is on record as “binds”.
As for “AFG3L2 (from UniProt Q9Y4W6 67-797) (enzyme)”, in the test with LONP1 (human) [1], the binding result was “binds”.

B1: HTRA2 (enzyme, UniProt O43464 134-458)
chain: AVPSPPPASPRSQYNFIADVVEKTAPAVVYIEILDRHPFLGREVPISNGSGFVVAADGLIVTNAHVVADRRRVRVRLLSGDTYEAVVTAVDPVADIATLRIQTKEPLPTLPLGRSADVRQGEFVVAMGSPFALQNTITSGIVSSAQRPARDLGLPQTNVEYIQTDAAIDFGNSGGPLVNLDGEVIGVNTMKVTAGISFAIPSDRLREFLHRGEKKNSSSGISGSQRRYIGVMMLTLSPSILAELQLREPSFPDVQHGVLIHKVILGSPAHRAGLRPGDVILAIGEQMVQNAEDVYEAVRTQSQLAVQIRRGRETLTLYVTPEVTE
Take B1: in the test with LONP1 (human) [2], the binding result is “binds”.

B2: SSBP1 (protein, UniProt Q04837 17-148)
chain: ESETTTSLVLERSLNRVHLLGRVGQDPVLRQVEGKNPVTIFSLATNEMWRSGDSEVYQLGDVSQKTTWHRISVFRPGLRDVAYQYVKKGSRIYLEGKIDYGEYMDKNNVRRQATTIIADNIIFLSDQTKEKE
Consider B2, for which the binding entry with LONP1 (human) [2] is “binds”.

B3: LONP1 (enzyme, UniProt P36776 68-959)
chain: FWEASSRGGGAFSGGEDASEGGAEEGAGGAGGSAGAGEGPVITALTPMTIPDVFPHLPLIAITRNPVFPRFIKIIEVKNKKLVELLRRKVRLAQPYVGVFLKRDDSNESDVVESLDEIYHTGTFAQIHEMQDLGDKLRMIVMGHRRVHISRQLEVEPEEPEAENKHKPRRKSKRGKKEAEDELSARHPAELAMEPTPELPAEVLMVEVENVVHEDFQVTEEVKALTAEIVKTIRDIIALNPLYRESVLQMMQAGQRVVDNPIYLSDMGAALTGAESHELQDVLEETNIPKRLYKALSLLKKEFELSKLQQRLGREVEEKIKQTHRKYLLQEQLKIIKKELGLEKDDKDAIEEKFRERLKELVVPKHVMDVVDEELSKLGLLDNHSSEFNVTRNYLDWLTSIPWGKYSNENLDLARAQAVLEEDHYGMEDVKKRILEFIAVSQLRGSTQGKILCFYGPPGVGKTSIARSIARALNREYFRFSVGGMTDVAEIKGHRRTYVGAMPGKIIQCLKKTKTENPLILIDEVDKIGRGYQGDPSSALLELLDPEQNANFLDHYLDVPVDLSKVLFICTANVTDTIPEPLRDRMEMINVSGYVAQEKLAIAERYLVPQARALCGLDESKAKLSSDVLTLLIKQYCRESGVRNLQKQVEKVLRKSAYKIVSGEAESVEVTPENLQDFVGKPVFTVERMYDVTPPGVVMGLAWTAMGGSTLFVETSLRRPQDKDAKGDKDGSLEVTGQLGEVMKESARIAYTFARAFLMQHAPANDYLVTSHIHLHVPEGATPKDGPSAGCTIVTALLSLAMGRPVRQNLAMTGEVSLTGKILPVGGIKEKTIAAKRAGVTCIVLPAENKKDFYDLAAFITEGLEVHFVEHYREIFDIAFPDEQAEALAVER
As to B3, in test [3], the binding entry is “binds”.
